According to PMC12204631:

T1: 6HIS-HA-JHD2 (S. cerevisiae) (UniProt P47156)
T1 sequence: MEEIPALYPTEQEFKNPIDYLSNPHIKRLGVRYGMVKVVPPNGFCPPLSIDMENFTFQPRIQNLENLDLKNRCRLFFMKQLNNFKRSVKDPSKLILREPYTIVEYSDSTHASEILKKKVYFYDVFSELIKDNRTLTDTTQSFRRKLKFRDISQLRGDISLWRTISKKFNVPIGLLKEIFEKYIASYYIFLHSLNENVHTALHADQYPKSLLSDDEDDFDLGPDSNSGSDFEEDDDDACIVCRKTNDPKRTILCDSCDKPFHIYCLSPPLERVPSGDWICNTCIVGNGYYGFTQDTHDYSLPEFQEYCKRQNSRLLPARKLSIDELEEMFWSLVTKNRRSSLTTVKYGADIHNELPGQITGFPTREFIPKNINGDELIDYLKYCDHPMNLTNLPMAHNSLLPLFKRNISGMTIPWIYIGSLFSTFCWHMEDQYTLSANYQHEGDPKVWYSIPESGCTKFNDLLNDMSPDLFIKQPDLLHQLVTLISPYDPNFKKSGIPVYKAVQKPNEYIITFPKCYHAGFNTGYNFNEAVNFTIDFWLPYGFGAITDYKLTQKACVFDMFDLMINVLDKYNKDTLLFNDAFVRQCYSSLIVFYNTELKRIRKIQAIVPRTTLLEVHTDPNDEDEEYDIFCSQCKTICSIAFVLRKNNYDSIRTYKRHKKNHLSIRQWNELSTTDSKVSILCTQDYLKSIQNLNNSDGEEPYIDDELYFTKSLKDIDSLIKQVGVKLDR

B1: TRM5 (protein, UniProt P38793 45-499)
chain: KIPMCAVKFPEPKNISVFSKNFKNCILRVPRIPHVVKLNSSKPKDELTSVQNKKLKTADGNNTPVTKGVLLHESIHSVEDAYGKLPEDALAFLKENSAEIVPHEYVLDYDFWKAEEILRAVLPEQFLEEVPTGFTITGHIAHLNLRTEFKPFDSLIGQVILDKNNKIECVVDKVSSIATQFRTFPMKVIAGKSDSLVVEQKESNCTFKFDFSKVYWNSRLHTEHERLVKQYFQPGQVVCDVFAGVGPFAVPAGKKDVIVLANDLNPESYKYLKENIALNKVAKTVKSFNMDGADFIRQSPQLLQQWIQDEEGGKITIPLPLKKRHRSQQHNDQQPPQPRTKELIIPSHISHYVMNLPDSAISFLGNFRGIFAAHTKGATDTIQMPWVHVHCFEKYPPGDQVTEDELHARVHARIIAALKVTADDLPLNAVSLHLVRKVAPTKPMYCASFQLPANV
B2: APQ12 (protein, UniProt P40532 1-138)
chain: MDATQPQYELSVVTQCLKSAIDVIQWLIPTITKFSQSHPLVFQLLFIFFTFYVFYKLLMNFITLVKRFLYLTLVVTCIGIYMRGSQQFLTVDLLNFYNFVMSNRYYAFKIYTLFINALEREINTVYHLAQMKMEQLLK
B3: LOS1 (protein, UniProt P33418 1-1100)
chain: MLERIQQLVNAVNDPRSDVATKRQAIELLNGIKSSENALEIFISLVINENSNDLLKFYGLSTLIELMTEGVNANPNGLNLVKFEITKWLKFQVLGNKQTKLPDFLMNKISEVLTTLFMLMYSDCNGNQWNSFFDDLMSLFQVDSAISNTSPSTDGNILLGLEFFNKLCLMINSEIADQSFIRSKESQLKNNNIKDWMRDNDIMKLSNVWFQCLKLDEQIVSQCPGLINSTLDCIGSFISWIDINLIIDANNYYLQLIYKFLNLKETKISCYNCILAIISKKMKPMDKLAFLNMINLTNELTYYHQAISMNPQIITFDNLEVWESLTKLITSFGIEFTIIIEQVNDDQKLDTLYKQSVISNVDSILLEKIIPILLEFMNNEFDSITAKTFPFWSNYLAFLKKYKASSPNFVPLHKDFLDNFQQICFKRMKFSDDEVTQDDFEEFNETVRFKLKNFQEIIVVIDPSLFLNNISQEISANLMNCKNESWQIFELTIYQIFNLSECTKNNYFGLNKNEIMTSQPSLTLVRFLNELLMMKDFLLAIDNEQIQILFMELIVKNYNFIFSTSANTANATDDDEKYLLILNIFMSSFAMFNKRENVRLRSWYLFTRFLKLTRINLKKILFANKNLVNEITNKISPLLHIKVTSINAQGTDDNDTIFDNQLYIFEGIGFIITLNNSSQELTAATANTPIDYDILDQILTPLFTQLEGCITQGASPVVILECHHILMAIGTLARGLHIGLVPENQVNNMVVNKKLINDSLIHKFSNIAEVILVTFSFFNKFENIRDASRFTFARLIPILSNKILPFINKLIELILSSTDLKSWEMIDFLGFLSQLIHMFHTDTDCYQLFNQLLTPLINKVHSIIEEIDEQHDQQSSSNKPIDTAVTATSVNKNIVVTDSYRDKILLKKAYCTFLQSFTNNSVTSILLSDINRAILPVILNDLVTYTPQEIQETSMMKVSLNVLCNFIKCFGNGTCLDNDDINKDPNLKIDGLNEYFIMKCVPIIFEIPFNPIYKFNIKEGNFKTMAYDLARLLRELFIVSSNPTTNENECVKYLTQIYLPQIQLPQELTIQLVNMLTTMGQKQFEKWFVDNFISVLKQGQ
B4: TRM2 (protein, UniProt P33753 1-639)
chain: MYEQFEFSFFFFENSDNKVKYKAHLISSIKRWSIITCMRCFWTVQKSIFKARFFACRNFVKKHNYKLISTMTGSTEMVPPTMKHTVDNKRLSSPLTDSGNRRTKKPKLRKYKAKKVETTSPMGVLEFEVNDLLKSQNLSREQVLNDVTSILNDKSSTDGPIVLQYHREVKNVKVLEITSNGNGLALIDNPVETEKKQVVIIPFGLPGDVVNIKVFKTHPYYVESDLLDVVEKSPMRRDDLIRDKYFGKSSGSQLEFLTYDDQLELKRKTIMNAYKFFAPRLVAEKLLPPFDTTVASPLQFGYRTKITPHFDMPKRKQKELSVRPPLGFGQKGRPQWRKDTLDIGGHGSILDIDECVLATEVLNKGLTNERRKFEQEFKNYKKGATILLRENTTILDPSKPTLEQLTEEASRDENGDISYVEVEDKKNNVRLAKTCVTNPRQIVTEYVDGYTFNFSAGEFFQNNNSILPIVTKYVRDNLQAPAKGDDNKTKFLVDAYCGSGLFSICSSKGVDKVIGVEISADSVSFAEKNAKANGVENCRFIVGKAEKLFESIDTPSENTSVILDPPRKGCDELFLKQLAAYNPAKIIYISCNVHSQARDVEYFLKETENGSAHQIESIRGFDFFPQTHHVESVCIMKRI
B5: TRM3 (protein, UniProt Q07527 1-1436)
chain: MVGGALICKYLPREEQLKLISDLIQNDSLEEVLELIETSPLDITTDSNIETPIFEKITEQVIAYASIDGEAREMFRSSRAEMNKALRTSAQLLCCLPSVWHKFQVWMSYRLNDIISENYKHLFNDNFGKKIVQPFFDSFAEEQNANIKHENLHLDILSLLHYLEVVYLFDECKNGISSKCLDFIIVPLLGCNSEEIADSCSKLMRWHIKYLSKCCNTDSNFDKLIWTFIKQLYAEGSQQAWKQKNSLSFLLRFLLAAELSPELITYIKTDAYWRHIQTELDNDVHEHRKLALSILKLTIQKLSSHGITLQTTFYKCNDLANIEMLGSWKKFTTLYEMIALDTSLNQIQAAKQDIIKIFDNEHLHHSWGLILLSTGLKSSMESVRKYMMTLMFSITNMSAFSSNLPLLTKTLLPAAMSAHYFDVKGVSCPHGEKLSLFVNNLLSQTTEGISDILFEILKLLVEKGTSFDPSRIYLSYGILVFFQNNKQKTINSDHLSLIRKLYDFAAEEEVLETTIQTIYLKFLLYIDPSVSASELLFTLVSHIKLKGGTYKYVEPLFEDYRDLAVSHFDDLQAKENLTTNIGKDTIFDLLASIIFDFKDIDITPDFLIEVAKSKQDIPVYTSKAVTFLTQLLSGEPSNGYTYENATALLSYPNFTISTWKSINVNNLFKSVMEKFSLDKFKFFAEIYQKTYECRFDTIELNFNDLLSLYEMVKKSANQCSRESFKVKDSAYSSYFELLNTFLKTYALNRDSSEGNDDELHILLRLVDENINKDNGNYLGNLAVCKLLYFIIDSYIHCSTSVSDDDIFIVKFIFEKFSFIWECINSERLVLKERDLHLMLIKGLFHPVILYFGSNQYIDTLTSKLEEHAQTIISLSYSRRSLLPLLGSQLRVFMKFYGKLLREDVNYWWLINIIVGVFKQPQMDVNLYKLKPVISSLFDHKLNNYYIKGDELYEKVYGPDEILARVSIIDSILYANDQLKIRLIEKVTEKTNALYAIKRTDGAEALQRLLQWQLLLLSLLTTNEKKLSETSMIRILKSIEDESSPLVRVYKEWFISSKVVDYYKTGNPKFAEDYLFSLLEDHSKPVFVVSAEKICFMVLKDLRNDEKKYGFTQLLDRFICTLVPNAASNKPLVRHFSNSLIISLWPTFKAYLSDHTLRNIIENLYSNAKKTQIFGQYRAGDANIWDLKGDRKLTNMFGGVLKKVTDHDCPYISESVFEKYLQEKDIVPIGTDERSLWLDKRDTNTESVNNANISCDTSPLQTKSGAWETVLDLDNKKSNDVVTRSELIVVSSLVDKPPNLGGICRLCDVLGVGLLTVQDIKVKNHPQFKNVAVTADRWMPMEEVALDEIASFMKEKKKEGYTLIGLEQTDKSVKLDNNFQFPKKSLILLGTEAFGIPGTLLSELDLCLEIQQFGVIRSMNIQTATAVIVHSYTVQHM
B6: TRM44 (protein, UniProt Q02648 1-567)
chain: MTGDGSAHISKNNQNQHKDRFKFIVNDKSILGPQWLSLYQTDGKVTFAKSHFEQAMMNVIREPNINSTVILRADILKEINHAAEAGSEPKFDESVLKKFEIDNGNESGEEDVKKINIEDLNIRSCETSESLKLSPVHEFVRRIIPRNFYKDAIINQTCLILNSKDPNFQETSLIVYTPHINSEKDCPFYIPRTQSVGILLHQSVLSVHYIPFPEDKTAFTDESERVVRTAYRLLQTANKHSKGVMQGYEKRVNHDQVVNKVNFQNTYIVLKKKYSKFLVENWAESTDPKKHVFEDIAIAAFLIELWIKVYGPDFRSKMQFRDLGCGNGALCYILLSESIKGLGIDARKRKSWSIYPPEVQSSLKEQVIIPSILLRPHPALKRQVPHLEHNGRFFPVKVTHEVIAPATVVYSSEDLLKSPQVNTAEFPPDTFIIGNHSDELTCWIPLLGHPYMVIPCCSHNFSGQRVRFNVRKRSPRSNEIKNQNNSKSTYSGLVDHVEYISSRVGWKVEKEMLRIPSTRNAAIIGVENATLKHFPTQAVYDMIWEDGGAEGWIQNTMSLLKRNPRNH
B7: ASM4 (protein, UniProt Q05166 1-528)
chain: MFGIRSGNNNGGFTNLTSQAPQTTQMFQSQSQLQPQPQPQPQQQQQHLQFNGSSDASSLRFGNSLSNTVNANNYSSNIGNNSINNNNIKNGTNNISQHGQGNNPSWVNNPKKRFTPHTVIRRKTTKQNSSSDINQNDDSSSMNATMRNFSKQNQDSKHNERNKSAANNDINSLLSNFNDIPPSVTLQDWQREDEFGSIPSLTTQFVTDKYTAKKTNRSAYDSKNTPNVFDKDSYVRIANIEQNHLDNNYNTAETNNKVHETSSKSSSLSAIIVFGYPESISNELIEHFSHFGHIMEDFQVLRLGRGINPNTFRIFHNHDTGCDENDSTVNKSITLKGRNNESNNKKYPIFTGESWVKLTYNSPSSALRALQENGTIFRGSLIGCIPYSKNAVEQLAGCKIDNVDDIGEFNVSMYQNSSTSSTSNTPSPPNVIITDGTLLREDDNTPAGHAGNPTNISSPIVANSPNKRLDVIDGKLPFMQNAGPNSNIPNLLRNLESKMRQQEAKYRNNEPAGFTHKLSNWLFGWNDL
B8: TRM11 (protein, UniProt Q12463 1-433)
chain: MKKYLLYMVQVHLNFRRAELESLADLYNLSIDFSQYDANSPFFIVELENDQQAKDWIKRSILTRGIYEYWGQGTTLDELHKDIQRQSNFEQDLQLKFKHSTFKFEFECYKGNSKAKRVEQIETFRYLGFEGKIDMKHPQEVFTVIEEYTPISENVGGKTPTRIYFGRQVQMSNRSAMEKYDLKKRPYKGTTSFEAELSLVSANIAQVKPGTIMYDPFAGTGSFLVAGGHFGSLVIGSDIDGRMIRGKGAQVNISANFKKYGESSQFLDVLTMDFTNNALRNNLVIDTILCDPPYGIRESIKVLGAKDPERFLGKEDMEIDGEKAYLRRDYIPTKKPYALDSLLDDLLQYSSERLPIGGRLAFWMPTANDANIETIVPMHENLELKYNCVQEFNKWSRRLLVYINRGSTFNGSSNHGIKRSKDNFRERYFNNFN

Target: T1, 6HIS-HA-JHD2 (S. cerevisiae)
Test: affinity purification with mass spectrometry; whole cell extracts of a wild-type strain with 6HIS-HA-JHD2 induced from the GAL1 promoter for 6 hours; Ni-NTA agarose and anti-HA agarose beads at 4°C for 24 hours; proteins found with the empty vector strain excluded

binding, binds:
B1
B2
B3
B4
B5
B6
B7
B8

No constants are given. Whether binding was seen depends on the method and setting. Binding seen in cells or lysates may run through a third protein. These calls come from enrichment with a bait or labelling near it, and not all partners need be listed. Tags and fused reporters may be left off the sequences shown.
